Test: peptide synthesis
Conditions: late stage modification step, cyclic, sequence written open

Row | Substance | step yield [%]
1 | Bis-Benzyl Derivative of Labyrinthopeptin A1 | 17.5
2 | Boc-Protected Labyrinthopeptin A1 | 40.8
